{"source": "paper PMC12147180", "key": {"[1]": {"target": "T1, CCR9 C2 (CCR9-RlucII with T362A/T363A/S364A/S368A) (human) (UniProt P51686)", "T1 sequence": "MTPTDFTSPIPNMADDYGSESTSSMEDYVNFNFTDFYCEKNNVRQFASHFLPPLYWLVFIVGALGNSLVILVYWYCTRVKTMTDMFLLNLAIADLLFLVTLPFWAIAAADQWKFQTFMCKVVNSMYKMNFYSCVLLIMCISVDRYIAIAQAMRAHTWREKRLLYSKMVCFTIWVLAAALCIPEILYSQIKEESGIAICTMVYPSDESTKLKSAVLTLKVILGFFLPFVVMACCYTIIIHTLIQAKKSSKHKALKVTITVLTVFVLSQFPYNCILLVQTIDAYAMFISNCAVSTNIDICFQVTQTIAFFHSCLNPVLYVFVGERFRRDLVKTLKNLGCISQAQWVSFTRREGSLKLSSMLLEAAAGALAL", "test": "FRET or BRET; live HEK293 cells (parental; also ΔGRK2/3 and ΔGRK5/6 cells, where recruitment was only partially impacted) co-transfected with CCR9-RlucII (WT or ST/A mutants) and GFP10-β-arrestin2; 200 nM CCL25 or a titration of CCL25; HBSS + 0.1% BSA, Prolume Purple, 37 °C"}, "[2]": {"target": "T2, CCR9-RlucII (human) (UniProt P51686)", "T2 sequence": "T1 sequence with A362T, A363T, A364S, A368S", "test": "FRET or BRET; live HEK293 cells (parental; also ΔGRK2/3 and ΔGRK5/6 cells, where recruitment was only partially impacted) co-transfected with CCR9-RlucII (WT or ST/A mutants) and GFP10-β-arrestin2; 200 nM CCL25 or a titration of CCL25; HBSS + 0.1% BSA, Prolume Purple, 37 °C"}, "[3]": {"target": "T2, CCR9-RlucII (human)", "test": "FRET or BRET; as a2, but in HEK293 ΔGRK2/3/5/6 cells (no GRK phosphorylation of the receptor); 200 nM CCL25 or a titration of CCL25"}}, "note": "Where a chain is given by its changes, count along the chain named. No constants are given. Whether binding was seen depends on the method and setting. In cells and extracts the contact can be indirect. Some entries that bind do so weakly or less than the wild type. Where a sequence is shown, tags or fusion partners need not be part of it.", "data": [{"substance": "GFP10-β-arrestin2 (from UniProt P32121 1-409)", "values": [{"measurement": "binding", "setting": "[1]", "value": "binds"}, {"measurement": "binding", "setting": "[2]", "value": "binds"}, {"measurement": "binding", "setting": "[3]", "value": "binds weakly"}]}]}
